# Data: PMC3547912
# Chains of the proteins cited; added tags and fusions are not shown. Lines headed by an entry give the natural chain unless they say otherwise; changes in a name come on top.
# UniProt Q10443: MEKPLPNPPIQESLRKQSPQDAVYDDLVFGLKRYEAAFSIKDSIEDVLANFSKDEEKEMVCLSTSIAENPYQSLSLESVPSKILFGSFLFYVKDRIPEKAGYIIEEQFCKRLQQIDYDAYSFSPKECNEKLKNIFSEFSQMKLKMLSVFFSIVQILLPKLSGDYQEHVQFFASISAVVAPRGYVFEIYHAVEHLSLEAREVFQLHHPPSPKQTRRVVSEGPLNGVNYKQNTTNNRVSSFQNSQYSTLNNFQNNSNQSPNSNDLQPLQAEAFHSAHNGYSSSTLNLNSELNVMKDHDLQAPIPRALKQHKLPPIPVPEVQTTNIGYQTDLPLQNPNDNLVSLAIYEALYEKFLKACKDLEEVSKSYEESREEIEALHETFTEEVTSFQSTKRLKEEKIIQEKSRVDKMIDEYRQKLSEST
# Molecular target: T1, Gef2-3GFP (S. pombe) (UniProt Q09733)
# T1 sequence: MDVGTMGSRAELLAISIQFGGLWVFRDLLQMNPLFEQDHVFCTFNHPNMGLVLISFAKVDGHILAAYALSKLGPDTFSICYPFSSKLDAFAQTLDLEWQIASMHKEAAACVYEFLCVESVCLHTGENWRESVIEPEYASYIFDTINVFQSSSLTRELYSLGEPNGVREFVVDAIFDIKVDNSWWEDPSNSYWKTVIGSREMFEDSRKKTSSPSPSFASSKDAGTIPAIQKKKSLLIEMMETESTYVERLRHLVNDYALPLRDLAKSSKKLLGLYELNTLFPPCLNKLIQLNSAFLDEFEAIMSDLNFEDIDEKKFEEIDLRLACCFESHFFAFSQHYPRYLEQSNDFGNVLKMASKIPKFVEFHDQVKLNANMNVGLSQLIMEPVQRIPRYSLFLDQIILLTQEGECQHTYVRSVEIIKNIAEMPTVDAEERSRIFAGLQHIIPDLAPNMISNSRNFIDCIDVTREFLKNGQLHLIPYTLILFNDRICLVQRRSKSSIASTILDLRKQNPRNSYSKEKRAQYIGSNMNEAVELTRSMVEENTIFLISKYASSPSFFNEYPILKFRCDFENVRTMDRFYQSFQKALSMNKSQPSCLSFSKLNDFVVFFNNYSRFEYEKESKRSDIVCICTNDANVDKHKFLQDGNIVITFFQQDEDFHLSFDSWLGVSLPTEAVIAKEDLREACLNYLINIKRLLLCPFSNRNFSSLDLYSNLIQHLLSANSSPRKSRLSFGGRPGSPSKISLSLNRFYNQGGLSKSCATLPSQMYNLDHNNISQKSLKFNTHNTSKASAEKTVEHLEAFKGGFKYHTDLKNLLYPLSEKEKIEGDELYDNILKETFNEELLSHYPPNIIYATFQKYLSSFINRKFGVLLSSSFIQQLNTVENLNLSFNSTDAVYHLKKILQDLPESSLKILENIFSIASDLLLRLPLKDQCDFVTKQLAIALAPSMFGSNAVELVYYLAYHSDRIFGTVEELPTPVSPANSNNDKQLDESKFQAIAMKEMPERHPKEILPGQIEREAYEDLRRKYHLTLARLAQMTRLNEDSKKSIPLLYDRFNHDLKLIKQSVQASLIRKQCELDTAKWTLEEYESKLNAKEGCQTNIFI
# Experiment: co-IP; reciprocal co-IPs from whole cell extracts (0.5-4 mg) of asynchronous S. pombe, protein-A Dynabeads with anti-3PK, anti-Flag or anti-GFP, 2 h at 4°C; wild-type cells (the Nod1-Gef2 pair also in blt1Δ cells)
substance,measurement,value
Nod1-3PK (from UniProt Q10443),binding,binds

# These are yes or no findings as the source states them, for the method shown. In cells and extracts the contact can be indirect. A result given as binding can be weak or reduced; the word gives no strength. Sequences can lack the tags named with a protein.
